These are yes or no findings as the source states them, for the method shown. Some results given as binding are weak or reduced against the parent protein; the word gives no strength. Tags and fused reporters may be left off the sequences shown.
What was measured:
[1] = target: IMPa-4 (plant importin α) (UniProt O80480); experiment: BiFC in tobacco BY-2 cells
[2] = target: IMPa-1 (plant importin α) (UniProt Q96321); experiment: BiFC in tobacco BY-2 cells

Amino acid sequences for entries named in this document (tags omitted).
UniProt O80480: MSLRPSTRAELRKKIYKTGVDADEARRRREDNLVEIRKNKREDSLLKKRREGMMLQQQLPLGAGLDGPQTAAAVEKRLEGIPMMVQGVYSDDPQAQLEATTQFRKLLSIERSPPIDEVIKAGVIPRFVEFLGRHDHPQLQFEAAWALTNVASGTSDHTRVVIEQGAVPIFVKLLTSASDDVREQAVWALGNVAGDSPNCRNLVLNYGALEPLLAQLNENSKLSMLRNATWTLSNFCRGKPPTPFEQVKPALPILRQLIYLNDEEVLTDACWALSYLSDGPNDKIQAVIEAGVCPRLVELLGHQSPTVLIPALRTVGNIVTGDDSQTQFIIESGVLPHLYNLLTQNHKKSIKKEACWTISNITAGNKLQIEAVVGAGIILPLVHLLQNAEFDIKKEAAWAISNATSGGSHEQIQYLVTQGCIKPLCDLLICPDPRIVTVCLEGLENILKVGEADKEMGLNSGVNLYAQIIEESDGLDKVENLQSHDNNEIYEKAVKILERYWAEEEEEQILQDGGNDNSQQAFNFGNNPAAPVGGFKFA
UniProt Q96321: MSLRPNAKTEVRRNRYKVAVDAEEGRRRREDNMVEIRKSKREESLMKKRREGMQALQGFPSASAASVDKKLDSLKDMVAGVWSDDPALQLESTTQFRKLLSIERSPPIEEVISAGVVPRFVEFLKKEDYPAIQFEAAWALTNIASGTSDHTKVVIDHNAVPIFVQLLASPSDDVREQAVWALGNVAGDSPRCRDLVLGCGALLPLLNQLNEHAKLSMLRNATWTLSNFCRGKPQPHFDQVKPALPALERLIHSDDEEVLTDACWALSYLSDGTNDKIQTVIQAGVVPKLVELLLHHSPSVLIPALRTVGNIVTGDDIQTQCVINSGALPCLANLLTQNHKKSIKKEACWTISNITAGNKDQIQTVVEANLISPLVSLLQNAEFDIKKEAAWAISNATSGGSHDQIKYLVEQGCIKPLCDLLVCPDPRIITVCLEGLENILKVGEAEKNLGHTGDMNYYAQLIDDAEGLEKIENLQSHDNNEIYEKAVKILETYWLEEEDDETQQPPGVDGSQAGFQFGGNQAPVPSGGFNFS

B1: LSH10 tagged with the N-terminal fragment of the autofluorescent protein Venus (LSH10-nVenus) (protein, not shown: large carriers)
chain: MSSPRERGKSLMESSGSEPPVTPSRYESQKRRDWNTFGQYLKNQRPPVPMSHCSCNHVLDFLRYLDQFGKTKVHVPGCMFYGQPEPPAPCTCPLRQAWGSLDALIGRLRAAYEENGGPPETNPFASGAIRVYLREVRECQAKARGIPYKKKKKKKPTPEMGGGREDSSSSSSSFSFS
binding [1]: binds | binding [2]: binds
